These are yes or no findings as the source states them, for the method shown. In cells and extracts the contact can be indirect. Some results given as binding are weak or reduced against the parent protein; the word gives no strength.
Assays:
[1] = target: fat mass and obesity-associated protein (FTO), endogenous (human (endogenous in HEK 293 T and CFPAC-GM)) (UniProt Q9C0B1); assay: co-IP; CFPAC-GM cell lysates; primary antibody overnight at 4 C, protein G Dynabeads 1 h at room temperature (supplementary Figures S3, S4)
[2] = target: fat mass and obesity-associated protein (FTO), endogenous (human (endogenous in HEK 293 T and CFPAC-GM)) (UniProt Q9C0B1); assay: co-IP; endogenous proteins in HEK 293 T lysates; immunoprecipitation with an antibody to one partner, immunoblotting for the other, both directions
Flag-tagged FTO = Flag-tagged FTO (UniProt Q9C0B1); assay: co-IP; HEK 293 T cells transfected with Myc-USP7 and Flag-FTO plasmids; immunoprecipitation with anti-Myc or anti-Flag

Sequences of proteins named here, by UniProt entry; tags and fusion partners are left off.
UniProt Q93009: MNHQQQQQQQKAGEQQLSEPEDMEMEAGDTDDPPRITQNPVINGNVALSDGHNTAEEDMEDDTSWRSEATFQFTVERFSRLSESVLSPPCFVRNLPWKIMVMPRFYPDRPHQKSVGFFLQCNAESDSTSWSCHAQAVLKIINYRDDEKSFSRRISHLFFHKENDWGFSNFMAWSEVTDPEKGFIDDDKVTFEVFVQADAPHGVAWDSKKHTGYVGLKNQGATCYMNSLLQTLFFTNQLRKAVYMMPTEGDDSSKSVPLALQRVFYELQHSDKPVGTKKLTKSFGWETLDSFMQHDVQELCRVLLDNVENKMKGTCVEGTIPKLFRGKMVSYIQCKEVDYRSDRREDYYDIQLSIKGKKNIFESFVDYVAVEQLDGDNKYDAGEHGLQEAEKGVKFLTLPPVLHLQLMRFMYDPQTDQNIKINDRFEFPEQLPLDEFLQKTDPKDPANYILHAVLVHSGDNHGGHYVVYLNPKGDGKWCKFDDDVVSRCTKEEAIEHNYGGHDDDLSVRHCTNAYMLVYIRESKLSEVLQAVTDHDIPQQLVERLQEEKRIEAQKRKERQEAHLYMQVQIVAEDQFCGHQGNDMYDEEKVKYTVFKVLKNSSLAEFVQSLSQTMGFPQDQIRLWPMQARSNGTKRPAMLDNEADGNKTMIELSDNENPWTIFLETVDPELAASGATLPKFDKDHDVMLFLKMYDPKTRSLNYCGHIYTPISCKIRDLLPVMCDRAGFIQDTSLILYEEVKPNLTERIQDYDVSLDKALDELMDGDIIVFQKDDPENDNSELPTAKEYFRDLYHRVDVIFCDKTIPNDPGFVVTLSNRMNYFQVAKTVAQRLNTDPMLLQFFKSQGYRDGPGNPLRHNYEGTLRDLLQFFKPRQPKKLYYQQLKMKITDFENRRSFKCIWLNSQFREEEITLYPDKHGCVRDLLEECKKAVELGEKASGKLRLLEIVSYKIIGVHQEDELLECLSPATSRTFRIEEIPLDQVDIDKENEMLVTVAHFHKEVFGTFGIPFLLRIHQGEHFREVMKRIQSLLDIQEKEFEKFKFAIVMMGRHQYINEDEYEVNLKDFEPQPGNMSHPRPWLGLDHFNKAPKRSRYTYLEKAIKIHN

Row | binding [1] | binding [2] | binding (Flag-tagged FTO) | Substance
1 | binds | binds | – | Ubiquitin-specific protease 7 (USP7), endogenous (from UniProt Q93009 1-1102) (enzyme)
2 | – | – | binds | Myc-tagged USP7 (from UniProt Q93009 1-1102) (enzyme)

Source: article PMC10464189
